Measurements taken from publication PMC8748556, “CXCR4 peptide-based fluorescence endoscopy in a mouse model of Barrett’s esophagus” (EJNMMI Research, 2022).
Square brackets hold non-standard residues; d marks the D form. Side chains are listed from the residue outwards. Peptide text beside a SMILES is read from it. * marks the point of attachment. X1 = C[N+]1=C(C=CC=CC=C2N(CCCCCC(=O)*)c3ccc(S(=O)(=O)O)cc3C2(C)C)C(C)(C)c2cc(S(=O)(=O)[O-])ccc21; dTyr(3-I) = N[C@H](Cc1ccc(O)c(I)c1)C(=O)O; 2Nal = N[C@@H](Cc1ccc2ccccc2c1)C(=O)O; dNMeOrn = CN[C@H](CCCN)C(=O)O; 4Abz = Nc1ccc(C(=O)O)cc1; dDap = NC[C@@H](N)C(=O)O

Test system: SCJ, squamous and glandular epithelium of L2-IL1B mice
Format: in vivo, mouse
Details: confocal microscopy, 40x fields, 60 nmol i.v., 4 h p.i.; mean ± SEM, n = 5

Structure (SMILES): C[C@@H](NC(=O)[C@@H](CCCNC(=N)N)NC(=O)[C@@H](CN)NC(=O)CCCCCN1C(=CC=CC=CC2=[N+](C)c3ccc(S(=O)(=O)[O-])cc3C2(C)C)C(C)(C)c2cc(S(=O)(=O)O)ccc21)C(=O)Nc1ccc(C(=O)NCCC[C@@H]2C(=O)N[C@@H](CCCNC(=N)N)C(=O)N[C@@H](Cc3ccc4ccccc4c3)C(=O)NCC(=O)N[C@H](Cc3ccc(O)c(I)c3)C(=O)N2C)cc1 [MK007] (cyclo([dTyr(3-I)][dNMeOrn]([4Abz-dA-dR-dDap-X1])R[2Nal]G))
- Sulfo-Cy5 signal in SCJ (mean positive area): 465.8 ± 89.19 pixels
- Sulfo-Cy5 signal in glandular epithelium (mean positive area): 272.8 ± 54.99 pixels
